This is an account of results in article PMC4814920.

No constants are given. Whether binding was seen depends on the method and setting.

The test has as its target recombinant shewasin D (Shewanella denitrificans) (UniProt Q12R32). Kind of test: SEC; analytical size exclusion under non-denaturing conditions, Superose 12, 20 mM Tris-HCl pH 8.0 with 150 mM NaCl, calibrated with mass markers (13.7-158 kDa); estimated mass ~50 kDa against a theoretical 49025 Da; both purified.

B1: recombinant shewasin D (enzyme, UniProt Q12R32 1-429)
chain: MSKHFIPLPLTNVLADGGYSASVCLGSQLAKVNLIIDTGSSTLVVHENRYQGMHDTRLQSTSLAQQVSYGVGGWFGSVVHTRFNILDVSVDDMPLALVHHEAEHSFINADGIWGMAYHSLNRSYDMSEYLTANAIAPPATYPWPFPENDQPQFPLPEFQSEASDFKQLIHGLPEQDVATAFTLMEQQGLVSNRFAFIAHRSSIHHAKANMTPESLALDPLNQGMLILGGDERLSQYFQGEFTDLKVVHDRYYNVNLLSLSLAGGAPIKLPSALEAQLSRGSSNAIIDTGASLVSLPSQAFTQVIAELSQTVPQAAKLLAPFIGDINKVTQAQSQGIAMSELNLALWPALEFHFEGAADGRASLSCPAECYWQLNSPAPGRAVFKLMGQLAGWPAQSILGLPLLNPYFVLFQRDSGEFGTVRFAAHRQKS
Turning to B1, the binding entry is “no binding”.
